In PubChem BioAssay AID2685 (National Center for Advancing Translational Sciences (NCATS), 2010):
The other results are listed elsewhere or left out. Shown are side measurements of this screen, not its main read-out; they come without a call. Compounds called inactive in the main read-out are mostly missing here. The note in brackets gives the kind of curve behind each potency; many fits are weak.

Test: qHTS Assay for Lipid Storage Modulators in Drosophila S3 Cells;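 for cell number change: cells counted by Cell Tracker Red CMTPX staining in the red channel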
Details: BODIPY lipid droplet fluorescence, 18-24 h; for cell number change: measured here: cell count max response, cells fed with added oleic acid
In short: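 Drosophila S3 cells got compounds at several concentrations plus oleic acid (400 uM solution). Laser-scanning cytometry with 488 nm excitation read lipid droplets at 500-530 nm and cells at 575-640 nm. Percent activity was relative to 20 uM Triacsin C.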

[1] = measured here: cell number channel AC50, cells fed with added oleic acid
[2] = measured here: lipid fluorescence (Fed channel) AC50, cells fed with added oleic acid

SMILES: O=C(CSc1ccc2nnc(CCNC(=O)c3ccccc3)n2n1)NC1CCCC1
- cell number change: -3.24%

SMILES: O=C(COC(=O)c1c2c(nc3ccccc13)CCCC2)c1ccc(Br)s1
- cell number change: -83.3%
- AC50 [1]: 29.1 µM [falling, single point]

SMILES: CN(CC(=O)Nc1ccc(F)cc1)C(=O)COC(=O)c1cccc(N(C)C)c1
- cell number change: -17.5%
- AC50 [2]: 0.651 µM [falling, single point]

SMILES: CN1CCN(NC(=O)c2ccc(S(=O)(=O)N3CCCCCC3)cc2)CC1
- AC50 [2]: 0.731 µM [falling, partial curve, poor fit]

SMILES: CCO/N=C(/c1nonc1N)N1CCN(c2ccc([N+](=O)[O-])cc2)CC1
- cell number change: -63.9%
- AC50 [1]: 6.51 µM [falling, partial curve]
- AC50 [2]: 5.8 µM [falling, full curve]

SMILES: CCn1c(CSCc2ccc(C)cc2)nnc1SCC(=O)N1CCN(c2ccccc2)CC1
- AC50 [1]: 0.731 µM [falling, full curve]
- AC50 [2]: 6.51 µM [falling, single point]

SMILES: CCCN(CC(=O)Nc1ccccc1C)C(=O)c1ccc(OCc2c(C)noc2C)cc1
- cell number change: 45.1%
- AC50 [1]: 9.2 µM [rising, partial curve]

SMILES: CCc1ccc(NC(=O)CCc2nnc3ccc(N4CCCC4)nn23)cc1
- cell number change: 10%
- AC50 [1]: 1.64 µM [rising, partial curve, poor fit]
- AC50 [2]: 6.51 µM [rising, single point]

SMILES: O=C(N/N=C1/CC2C=CCC12)c1cccs1 (stereo unspecified)
- cell number change: 15.2%
- AC50 [2]: 0.103 µM [rising, full curve, poor fit]

SMILES: O=c1n(-c2ccccc2)c(=O)n(Cc2ccccn2)n1Cc1ccccn1
- cell number change: 7.05%
- AC50 [1]: 0.231 µM [falling, full curve]
- AC50 [2]: 0.411 µM [falling, full curve]

SMILES: CC1CCCC(C)N1C(=O)COC(=O)CNC(=O)c1ccccc1 (stereo unspecified)
- cell number change: -0.501%

SMILES: CCn1c(O)c(N=NC(=O)CNC(=O)Cc2ccccc2)c2ccccc21
- cell number change: -13.1%

SMILES: CCOC(=O)C1=C(CC)Nc2ccccc2N=C1NC(=O)c1oc2ccccc2c1C
- cell number change: 5.78%
- AC50 [1]: 2.31 µM [rising, partial curve, poor fit]
- AC50 [2]: 2.91 µM [rising, partial curve, poor fit]

SMILES: C=CCN(CC=C)Cc1c(O)ccc2c(=O)c(-c3ccccc3)coc12
- cell number change: -3.3%
- AC50 [2]: 6.51 µM [falling, single point]

SMILES: CC(C)(C)NC(=O)NC(=O)COC(=O)c1cccc(OC(F)F)c1
- AC50 [2]: 5.17 µM [falling, partial curve]

SMILES: O=C(Cc1ccccc1)Nc1ccccc1C(=O)Nc1ccccc1
- cell number change: -11.5%
- AC50 [2]: 29.1 µM [rising, single point]
